According to paper PMC8195999:
These are yes or no findings as the source states them, for the method shown. In cells and extracts the contact can be indirect. These calls come from enrichment with a bait or labelling near it, and not all partners need be listed. A no says only that the protein was not detected with the bait.

Amino acid sequences for entries named in this document (tags omitted).
UniProt O54917: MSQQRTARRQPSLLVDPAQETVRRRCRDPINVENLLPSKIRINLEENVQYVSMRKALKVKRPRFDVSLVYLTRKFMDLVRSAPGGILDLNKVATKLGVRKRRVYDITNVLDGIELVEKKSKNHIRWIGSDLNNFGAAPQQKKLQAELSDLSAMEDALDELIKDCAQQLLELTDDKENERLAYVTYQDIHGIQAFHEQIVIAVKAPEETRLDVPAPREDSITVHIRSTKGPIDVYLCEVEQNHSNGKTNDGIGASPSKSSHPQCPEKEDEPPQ
UniProt O09106: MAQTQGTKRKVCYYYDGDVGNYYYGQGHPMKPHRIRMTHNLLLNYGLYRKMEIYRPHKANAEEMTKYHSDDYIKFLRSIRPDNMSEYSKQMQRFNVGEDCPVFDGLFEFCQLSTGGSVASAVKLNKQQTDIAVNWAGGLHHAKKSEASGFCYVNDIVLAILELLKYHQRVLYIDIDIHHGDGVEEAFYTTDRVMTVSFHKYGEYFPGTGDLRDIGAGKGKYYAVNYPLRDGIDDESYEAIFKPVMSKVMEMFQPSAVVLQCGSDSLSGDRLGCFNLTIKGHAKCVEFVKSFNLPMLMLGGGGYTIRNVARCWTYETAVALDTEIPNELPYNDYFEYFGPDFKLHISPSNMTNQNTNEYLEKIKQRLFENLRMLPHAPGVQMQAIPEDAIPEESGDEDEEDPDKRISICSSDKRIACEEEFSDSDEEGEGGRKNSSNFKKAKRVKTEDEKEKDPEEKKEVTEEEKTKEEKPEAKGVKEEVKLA
UniProt P59178: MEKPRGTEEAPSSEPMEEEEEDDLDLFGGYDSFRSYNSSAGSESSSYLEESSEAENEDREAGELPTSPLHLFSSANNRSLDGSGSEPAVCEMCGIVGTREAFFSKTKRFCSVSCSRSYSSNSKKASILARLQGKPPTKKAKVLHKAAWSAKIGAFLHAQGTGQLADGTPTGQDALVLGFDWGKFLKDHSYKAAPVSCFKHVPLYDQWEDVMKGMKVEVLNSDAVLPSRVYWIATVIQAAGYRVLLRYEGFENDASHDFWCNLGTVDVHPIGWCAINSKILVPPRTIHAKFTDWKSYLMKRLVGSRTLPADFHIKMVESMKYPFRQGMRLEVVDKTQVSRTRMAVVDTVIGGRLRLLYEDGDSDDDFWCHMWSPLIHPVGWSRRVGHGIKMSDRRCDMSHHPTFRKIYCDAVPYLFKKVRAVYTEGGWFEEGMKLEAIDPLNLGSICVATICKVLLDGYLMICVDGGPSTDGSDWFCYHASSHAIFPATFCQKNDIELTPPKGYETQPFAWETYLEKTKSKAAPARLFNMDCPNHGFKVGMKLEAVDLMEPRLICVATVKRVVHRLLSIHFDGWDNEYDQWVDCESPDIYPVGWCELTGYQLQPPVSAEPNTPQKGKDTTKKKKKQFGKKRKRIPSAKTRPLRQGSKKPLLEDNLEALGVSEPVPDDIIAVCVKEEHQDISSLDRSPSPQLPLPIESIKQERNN
UniProt P28574: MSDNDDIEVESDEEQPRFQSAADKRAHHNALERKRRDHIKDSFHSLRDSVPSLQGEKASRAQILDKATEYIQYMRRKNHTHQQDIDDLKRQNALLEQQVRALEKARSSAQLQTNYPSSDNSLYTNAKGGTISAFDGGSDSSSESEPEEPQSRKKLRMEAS
UniProt A2AWL7: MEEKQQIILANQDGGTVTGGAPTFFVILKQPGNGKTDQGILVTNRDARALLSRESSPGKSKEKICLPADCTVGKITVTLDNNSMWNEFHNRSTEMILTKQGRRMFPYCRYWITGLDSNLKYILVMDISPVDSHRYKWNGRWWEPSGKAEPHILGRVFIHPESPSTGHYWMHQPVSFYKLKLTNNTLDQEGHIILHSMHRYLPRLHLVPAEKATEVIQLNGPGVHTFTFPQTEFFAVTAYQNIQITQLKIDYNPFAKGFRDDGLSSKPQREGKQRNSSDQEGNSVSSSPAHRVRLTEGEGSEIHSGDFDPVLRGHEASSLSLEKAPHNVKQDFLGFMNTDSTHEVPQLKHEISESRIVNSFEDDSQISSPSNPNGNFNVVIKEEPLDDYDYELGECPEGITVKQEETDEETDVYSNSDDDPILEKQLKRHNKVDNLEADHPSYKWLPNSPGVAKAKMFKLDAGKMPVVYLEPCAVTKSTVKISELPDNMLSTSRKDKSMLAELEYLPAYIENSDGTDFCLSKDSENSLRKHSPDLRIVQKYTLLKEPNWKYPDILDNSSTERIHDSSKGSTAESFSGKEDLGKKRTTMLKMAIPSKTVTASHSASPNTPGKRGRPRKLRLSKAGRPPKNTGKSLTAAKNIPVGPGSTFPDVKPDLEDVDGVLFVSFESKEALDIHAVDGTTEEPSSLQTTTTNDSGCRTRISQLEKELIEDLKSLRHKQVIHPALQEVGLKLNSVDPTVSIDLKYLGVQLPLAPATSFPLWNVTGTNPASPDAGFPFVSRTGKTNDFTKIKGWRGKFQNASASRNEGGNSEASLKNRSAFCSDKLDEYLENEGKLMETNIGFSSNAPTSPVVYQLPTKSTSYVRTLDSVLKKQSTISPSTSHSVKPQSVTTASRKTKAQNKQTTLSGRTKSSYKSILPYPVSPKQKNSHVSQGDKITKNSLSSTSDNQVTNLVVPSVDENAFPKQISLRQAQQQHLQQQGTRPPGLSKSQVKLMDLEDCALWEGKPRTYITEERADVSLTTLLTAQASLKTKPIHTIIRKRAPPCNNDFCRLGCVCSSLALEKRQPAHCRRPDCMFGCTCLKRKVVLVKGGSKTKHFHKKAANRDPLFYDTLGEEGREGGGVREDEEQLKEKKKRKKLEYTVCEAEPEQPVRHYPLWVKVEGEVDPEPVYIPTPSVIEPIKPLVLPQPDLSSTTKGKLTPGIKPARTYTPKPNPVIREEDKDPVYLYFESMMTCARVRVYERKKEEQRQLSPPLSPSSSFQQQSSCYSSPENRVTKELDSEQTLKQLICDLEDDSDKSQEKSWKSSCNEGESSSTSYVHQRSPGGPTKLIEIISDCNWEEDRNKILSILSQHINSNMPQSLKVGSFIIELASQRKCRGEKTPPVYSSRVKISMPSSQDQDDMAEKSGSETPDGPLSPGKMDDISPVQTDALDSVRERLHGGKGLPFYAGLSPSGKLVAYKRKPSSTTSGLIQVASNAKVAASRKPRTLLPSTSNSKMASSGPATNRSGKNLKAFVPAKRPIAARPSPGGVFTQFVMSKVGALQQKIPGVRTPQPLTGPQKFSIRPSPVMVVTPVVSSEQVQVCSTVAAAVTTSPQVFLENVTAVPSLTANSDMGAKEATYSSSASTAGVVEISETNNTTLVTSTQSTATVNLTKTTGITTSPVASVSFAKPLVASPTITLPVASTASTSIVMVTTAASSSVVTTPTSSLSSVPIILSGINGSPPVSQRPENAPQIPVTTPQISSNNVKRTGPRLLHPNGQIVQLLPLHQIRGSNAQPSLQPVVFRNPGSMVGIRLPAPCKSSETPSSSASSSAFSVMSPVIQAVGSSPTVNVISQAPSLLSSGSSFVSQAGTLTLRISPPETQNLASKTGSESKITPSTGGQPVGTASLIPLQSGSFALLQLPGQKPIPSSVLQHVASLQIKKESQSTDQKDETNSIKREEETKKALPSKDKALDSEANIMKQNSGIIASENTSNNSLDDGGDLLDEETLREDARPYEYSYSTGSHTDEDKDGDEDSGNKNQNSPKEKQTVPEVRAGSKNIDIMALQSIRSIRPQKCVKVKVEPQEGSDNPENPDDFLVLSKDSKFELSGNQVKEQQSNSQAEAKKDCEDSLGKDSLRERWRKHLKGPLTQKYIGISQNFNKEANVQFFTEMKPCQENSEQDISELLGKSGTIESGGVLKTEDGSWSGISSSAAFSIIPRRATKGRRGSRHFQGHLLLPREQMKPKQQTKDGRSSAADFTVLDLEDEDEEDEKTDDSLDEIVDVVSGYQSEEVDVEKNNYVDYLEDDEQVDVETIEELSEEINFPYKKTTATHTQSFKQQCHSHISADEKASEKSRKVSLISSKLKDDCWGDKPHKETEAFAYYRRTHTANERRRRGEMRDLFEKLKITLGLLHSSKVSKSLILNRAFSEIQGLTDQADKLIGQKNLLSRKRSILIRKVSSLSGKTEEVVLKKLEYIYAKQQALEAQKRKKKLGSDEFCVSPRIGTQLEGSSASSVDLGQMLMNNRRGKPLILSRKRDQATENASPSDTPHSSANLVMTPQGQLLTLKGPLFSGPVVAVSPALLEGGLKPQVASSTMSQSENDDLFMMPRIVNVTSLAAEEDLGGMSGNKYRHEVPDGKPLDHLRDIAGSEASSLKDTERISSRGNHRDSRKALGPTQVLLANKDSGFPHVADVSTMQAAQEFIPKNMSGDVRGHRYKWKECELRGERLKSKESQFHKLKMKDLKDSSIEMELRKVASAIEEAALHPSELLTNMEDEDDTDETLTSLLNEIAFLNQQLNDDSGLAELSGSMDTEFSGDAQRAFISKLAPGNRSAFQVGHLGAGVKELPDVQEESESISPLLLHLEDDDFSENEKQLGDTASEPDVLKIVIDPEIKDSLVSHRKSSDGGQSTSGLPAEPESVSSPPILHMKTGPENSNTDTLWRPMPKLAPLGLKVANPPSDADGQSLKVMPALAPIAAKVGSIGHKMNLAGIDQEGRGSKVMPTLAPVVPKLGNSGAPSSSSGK
UniProt A2AQ25: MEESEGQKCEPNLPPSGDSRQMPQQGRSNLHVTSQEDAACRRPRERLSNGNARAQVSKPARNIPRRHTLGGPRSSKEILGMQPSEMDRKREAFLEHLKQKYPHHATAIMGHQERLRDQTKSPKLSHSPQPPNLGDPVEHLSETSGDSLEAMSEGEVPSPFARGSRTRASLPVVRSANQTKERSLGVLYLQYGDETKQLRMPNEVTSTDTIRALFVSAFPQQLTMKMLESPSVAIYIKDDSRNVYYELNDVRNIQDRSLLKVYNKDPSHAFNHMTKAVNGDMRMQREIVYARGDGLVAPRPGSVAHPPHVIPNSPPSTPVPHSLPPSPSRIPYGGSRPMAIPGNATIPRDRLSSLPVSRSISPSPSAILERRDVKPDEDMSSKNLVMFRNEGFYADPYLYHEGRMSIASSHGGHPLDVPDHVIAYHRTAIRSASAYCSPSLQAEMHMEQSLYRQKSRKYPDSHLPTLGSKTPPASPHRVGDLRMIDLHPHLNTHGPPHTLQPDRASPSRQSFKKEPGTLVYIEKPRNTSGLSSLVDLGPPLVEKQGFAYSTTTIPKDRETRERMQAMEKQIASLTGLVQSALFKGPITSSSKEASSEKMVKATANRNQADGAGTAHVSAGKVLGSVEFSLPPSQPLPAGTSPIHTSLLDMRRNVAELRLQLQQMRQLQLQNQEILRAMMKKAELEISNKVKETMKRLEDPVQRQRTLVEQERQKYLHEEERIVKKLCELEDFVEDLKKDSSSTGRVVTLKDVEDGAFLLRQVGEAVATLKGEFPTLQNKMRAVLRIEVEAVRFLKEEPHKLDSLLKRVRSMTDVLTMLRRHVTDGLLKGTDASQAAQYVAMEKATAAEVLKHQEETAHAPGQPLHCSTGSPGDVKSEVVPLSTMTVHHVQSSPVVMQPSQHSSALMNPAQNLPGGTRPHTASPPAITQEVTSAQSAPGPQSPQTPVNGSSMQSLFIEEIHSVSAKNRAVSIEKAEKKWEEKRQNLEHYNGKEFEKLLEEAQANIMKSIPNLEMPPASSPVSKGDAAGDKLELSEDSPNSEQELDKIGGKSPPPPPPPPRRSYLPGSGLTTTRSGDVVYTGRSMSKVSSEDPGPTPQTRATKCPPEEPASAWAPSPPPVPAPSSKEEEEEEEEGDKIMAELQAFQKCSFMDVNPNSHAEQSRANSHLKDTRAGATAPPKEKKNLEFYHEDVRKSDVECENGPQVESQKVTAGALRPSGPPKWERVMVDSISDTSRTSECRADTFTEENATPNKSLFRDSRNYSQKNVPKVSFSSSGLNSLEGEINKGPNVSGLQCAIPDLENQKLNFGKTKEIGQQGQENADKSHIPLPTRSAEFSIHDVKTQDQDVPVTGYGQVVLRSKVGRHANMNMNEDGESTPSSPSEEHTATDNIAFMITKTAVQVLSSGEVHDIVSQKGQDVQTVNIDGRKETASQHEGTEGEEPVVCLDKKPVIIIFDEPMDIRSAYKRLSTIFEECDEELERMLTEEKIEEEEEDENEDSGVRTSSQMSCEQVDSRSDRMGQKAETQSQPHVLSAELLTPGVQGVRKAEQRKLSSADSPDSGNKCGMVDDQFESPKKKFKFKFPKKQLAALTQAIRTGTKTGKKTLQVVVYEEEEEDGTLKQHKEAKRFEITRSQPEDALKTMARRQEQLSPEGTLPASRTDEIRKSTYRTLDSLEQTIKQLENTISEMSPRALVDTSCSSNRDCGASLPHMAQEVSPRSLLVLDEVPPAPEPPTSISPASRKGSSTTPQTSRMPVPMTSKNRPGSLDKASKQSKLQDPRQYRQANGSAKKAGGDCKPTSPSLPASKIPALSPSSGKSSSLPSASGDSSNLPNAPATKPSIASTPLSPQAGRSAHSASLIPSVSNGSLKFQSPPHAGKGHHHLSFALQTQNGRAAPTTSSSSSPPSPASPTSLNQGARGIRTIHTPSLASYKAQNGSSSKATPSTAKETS

Target: 3×HA-E2F6 (UniProt O54917)
Test: affinity purification with mass spectrometry; anti-HA microbeads (mMACS, Miltenyi Biotec) on 1 mg nuclear extract of E14TG2a ESCs expressing 3×HA-E2F6 against control E14TG2a cells; nanoLC-MS/MS, spectral counts; enriched: fold change >2 and adjusted p-value < 0.05; n = 5

Substance | binding
DNMT1 (from UniProt P13864 1-1620) | no binding
G9a (from UniProt Q9Z148 1-1263) | no binding
HDAC1 (from UniProt O09106 1-482) | no binding
HDAC2 (from UniProt P70288 1-488) | no binding
KI-67 (from UniProt E9PVX6 1-3177) | binds
L3MBTL2 (from UniProt P59178 1-703) | binds
MAX (from UniProt P28574 1-160) | binds
MGA (from UniProt A2AWL7 1-3003) | binds
RING1A (from UniProt O35730 1-406) | binds
SKT (from UniProt A2AQ25 1-1946) | binds
